Measurements: patent US20090202526A1
Results are given in words; binding and its absence hold for the method and conditions named. Some entries that bind do so weakly or less than the wild type.

By UniProt entry, the sequences of proteins in these tests, tags left out. Residues count along the entry.
UniProt Q63604, residues 32-429: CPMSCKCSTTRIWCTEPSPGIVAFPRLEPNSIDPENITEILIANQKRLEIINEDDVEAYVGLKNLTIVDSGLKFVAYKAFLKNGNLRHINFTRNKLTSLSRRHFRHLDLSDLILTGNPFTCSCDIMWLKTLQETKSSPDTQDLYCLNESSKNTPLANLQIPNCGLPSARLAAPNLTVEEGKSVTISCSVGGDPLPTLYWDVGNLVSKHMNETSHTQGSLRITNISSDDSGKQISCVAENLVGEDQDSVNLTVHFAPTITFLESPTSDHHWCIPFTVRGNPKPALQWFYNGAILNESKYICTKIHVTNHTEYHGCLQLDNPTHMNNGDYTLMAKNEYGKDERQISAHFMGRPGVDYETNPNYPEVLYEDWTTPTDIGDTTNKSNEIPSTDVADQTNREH

Target: Rat trkB (rat) (UniProt Q63604)
Assay: BIAcore SPR, positive control

B1: Human NT-4/5 (ligand, UniProt P34130 81-210, looked up)
chain: GVSETAPASRRGELAVCDAVSGWVTDRRTAVDLRGREVEVLGEVPAAGGSPLRQYFFETRCKADNAEEGGPGAGGGGCRGVDRRHWVSECKAKQSYVRALTADAQGRVGWRWIRIDTACVCTLLSRTGRA
binding: binds
